Drawing on article PMC12218279, this text covers binding for 7 molecules.

By UniProt entry, the sequences of proteins in these tests, tags left out. Where a name states a change or a piece, a line headed by the entry shows the natural chain unless it says otherwise.
UniProt Q8I3V1: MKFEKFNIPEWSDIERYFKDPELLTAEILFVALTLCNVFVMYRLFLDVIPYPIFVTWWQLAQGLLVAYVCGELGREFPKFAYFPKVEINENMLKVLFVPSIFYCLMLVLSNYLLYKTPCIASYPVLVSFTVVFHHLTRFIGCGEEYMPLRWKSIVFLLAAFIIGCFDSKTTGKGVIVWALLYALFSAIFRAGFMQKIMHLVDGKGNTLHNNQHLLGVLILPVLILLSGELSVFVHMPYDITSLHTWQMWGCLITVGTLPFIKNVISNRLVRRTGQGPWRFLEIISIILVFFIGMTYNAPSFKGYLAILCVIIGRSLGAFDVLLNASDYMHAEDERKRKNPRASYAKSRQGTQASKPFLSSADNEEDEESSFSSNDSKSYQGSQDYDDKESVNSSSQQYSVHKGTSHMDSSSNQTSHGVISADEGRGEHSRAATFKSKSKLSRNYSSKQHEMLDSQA
UniProt Q8I3N7: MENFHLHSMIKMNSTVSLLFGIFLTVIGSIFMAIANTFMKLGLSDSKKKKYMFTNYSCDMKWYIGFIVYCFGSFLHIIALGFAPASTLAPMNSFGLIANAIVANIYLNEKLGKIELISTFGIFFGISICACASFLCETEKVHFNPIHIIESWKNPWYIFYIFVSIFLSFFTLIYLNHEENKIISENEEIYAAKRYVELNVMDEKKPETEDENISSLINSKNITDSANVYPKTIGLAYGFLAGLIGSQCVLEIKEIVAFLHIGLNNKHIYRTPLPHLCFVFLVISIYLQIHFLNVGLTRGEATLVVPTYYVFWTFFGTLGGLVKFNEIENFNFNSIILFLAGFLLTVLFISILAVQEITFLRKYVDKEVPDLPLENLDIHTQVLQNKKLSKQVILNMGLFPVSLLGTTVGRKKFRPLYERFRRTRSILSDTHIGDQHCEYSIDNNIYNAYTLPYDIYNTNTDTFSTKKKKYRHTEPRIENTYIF
UniProt C6KSU5: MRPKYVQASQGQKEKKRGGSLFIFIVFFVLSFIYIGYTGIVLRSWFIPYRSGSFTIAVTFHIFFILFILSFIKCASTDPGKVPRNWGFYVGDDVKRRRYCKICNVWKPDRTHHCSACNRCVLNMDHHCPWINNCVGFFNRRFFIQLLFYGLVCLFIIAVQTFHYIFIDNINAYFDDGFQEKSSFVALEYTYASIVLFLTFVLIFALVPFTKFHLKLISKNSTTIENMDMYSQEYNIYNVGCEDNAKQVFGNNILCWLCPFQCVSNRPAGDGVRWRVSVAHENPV

Results are given in words; binding and its absence hold for the method and conditions named. In cells and extracts the contact can be indirect. Here binding means that the protein was enriched with, or labelled near, the bait; the list need not be complete. Tags and fused reporters may be left off the sequences shown.

Assay [1] concerns the target T1, PfSKP1-HA (P. falciparum) (UniProt Q8ID38).
T1 sequence: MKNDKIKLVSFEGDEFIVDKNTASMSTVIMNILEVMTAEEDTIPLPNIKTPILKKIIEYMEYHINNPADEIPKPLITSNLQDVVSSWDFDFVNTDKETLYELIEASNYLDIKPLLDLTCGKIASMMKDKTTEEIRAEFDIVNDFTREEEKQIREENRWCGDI
Kind of assay: affinity purification with mass spectrometry; anti-HA agarose immunoprecipitation of PfSKP1-HA from schizont lysate (0.5X RIPA buffer, 1 h at room temperature), LC-MS/MS (DIA); parental DiCre strain as control.

For assay [2], the target named is T2, PfMCM4-Flag (P. falciparum) (UniProt Q8IEE5).
T2 sequence: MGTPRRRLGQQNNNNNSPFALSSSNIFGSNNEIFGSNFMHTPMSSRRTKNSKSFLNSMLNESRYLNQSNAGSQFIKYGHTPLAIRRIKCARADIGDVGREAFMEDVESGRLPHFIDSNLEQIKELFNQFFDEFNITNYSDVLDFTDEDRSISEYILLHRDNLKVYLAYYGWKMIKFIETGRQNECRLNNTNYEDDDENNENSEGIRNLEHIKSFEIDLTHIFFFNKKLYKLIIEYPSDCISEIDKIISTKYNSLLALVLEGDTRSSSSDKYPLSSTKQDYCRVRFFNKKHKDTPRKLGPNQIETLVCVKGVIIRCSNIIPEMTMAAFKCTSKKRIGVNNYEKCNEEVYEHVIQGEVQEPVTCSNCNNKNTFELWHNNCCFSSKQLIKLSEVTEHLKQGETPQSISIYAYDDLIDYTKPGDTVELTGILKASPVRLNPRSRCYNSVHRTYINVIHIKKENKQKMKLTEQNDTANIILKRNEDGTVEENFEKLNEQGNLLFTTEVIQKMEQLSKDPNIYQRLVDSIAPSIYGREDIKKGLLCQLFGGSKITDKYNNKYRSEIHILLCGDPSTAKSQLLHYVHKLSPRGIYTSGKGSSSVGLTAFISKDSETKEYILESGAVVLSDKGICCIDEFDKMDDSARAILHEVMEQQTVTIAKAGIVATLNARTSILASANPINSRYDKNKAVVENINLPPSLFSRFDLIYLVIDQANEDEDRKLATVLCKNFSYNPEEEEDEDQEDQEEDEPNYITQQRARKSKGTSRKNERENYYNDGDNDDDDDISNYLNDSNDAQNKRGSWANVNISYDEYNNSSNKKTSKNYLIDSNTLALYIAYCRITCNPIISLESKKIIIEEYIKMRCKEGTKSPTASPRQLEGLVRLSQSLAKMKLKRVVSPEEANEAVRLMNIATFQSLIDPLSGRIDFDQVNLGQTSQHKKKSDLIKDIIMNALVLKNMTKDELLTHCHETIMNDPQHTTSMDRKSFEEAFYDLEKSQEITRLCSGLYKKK
The assay is described as follows: affinity purification with mass spectrometry; anti-Flag agarose immunoprecipitation of PfMCM4-Flag from schizont lysate (0.5X RIPA buffer), LC-MS/MS; DiCre strain as control; also from DiCre-PfSKP1-HA and DiCre-PfRBX1-HA backgrounds pre-treated with DMSO or rapamycin.

Assay [3] deals with T3, PfRBX1-HA (P. falciparum) (UniProt O77367).
T3 sequence: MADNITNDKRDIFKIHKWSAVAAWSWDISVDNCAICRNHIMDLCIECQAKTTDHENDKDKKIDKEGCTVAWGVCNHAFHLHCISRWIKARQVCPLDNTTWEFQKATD
Kind of assay: affinity purification with mass spectrometry; anti-HA agarose immunoprecipitation of PfRBX1-HA from schizont lysate (0.5X RIPA buffer, 1 h at room temperature), LC-MS/MS (DIA); parental DiCre strain as control.

Regarding PfGAP40 (from UniProt Q8I3V1), the binding result in assay [1] is reported as “binds”.

Regarding “inner membrane complex protein (PF3D7_0522600) (from UniProt Q8I3N7)”, the binding result in assay [1] is “binds”.

Take “palmitoytransferase PfDHHC2 (from UniProt C6KSU5) (enzyme)”: the binding result in assay [1] is “binds”.

B1: PfMCM binding protein (PfMCMBP) (protein, UniProt Q8ILX3 1-956)
chain: MNVLNQIDECFSDYLKIYGPKEIDSHWDEGVVVNKYITLGKAKDNNENKDNINKGDDNNNNNNNNIKEEINKKNDLSEEKNGNYKNYSNDKENDNSTYMAKNKKQKENLFICNDLVEKCICLNNLESLEEIEDASLVRWTCMIQQIISPESYLGIYKLKNKENGKIIMKSSKYKDYIDAEDNWEIVEENEKRGMGEYYEFNINKYYENGDNKMDQTVDILKNNQDVDKKIDEHNKKDEKSDPNKICSNEQNDITNNNTYDNMELYENDGNFNKYWKRYLFFCTNIPGNKSAWTKELYDYSSSYVNREVFLKSKSDYENGIYLKDVKDPMNNEDVNNSVASSTDISNYMNSNNNNNNSINNIYSSREYICSSNELNETQNNNNNKDKNEYKKIDTNDKINNNNSNNNSNNNSKSNHNNNYYFINSTDLDMNSNISSNICSYNISPVNTSNKIRCVIKIYDDDSQYNGKNDKEFLKLNDVIEIIGIYRKHQIKDFEDYKKNYNFYFYYDQHFLKYPCIHIFQYKKINYFNPLNNCILFKNDLSIIISQGPFNDIQKLRHHLIMYISSAFNNDMLIAHYFFFYLCGSYIKESKLKLGKISLNIFNILYNNEIEKLNDHISSDNVNPDQMKKLQNKIPNDIDLEKDANQLKVTNNNCFLNSNNKVLVKEADKKGIAPHAKKINKMIKNLIPLYRYIPLILQKLNTEYLVSVMNNQYGELKKGKLQLANNTYLTFDECLLDVGNLNNISIKNFQCIERLITSQEIPFIFNMDIIFQTEHNILILSKKKSMYSHYVDIAIPICHYNKIKHNLTDTNNEQKNENIENVKGSTNNDEPSNSHDQKNEQTKGIFSSEFYNNINNNYKPNEKELMQFRRYINYILSKNHSAKIPEDITNYITDSFVLLRQKNKDINQFVLNSWICMSRILAFSDGHNEINRDHWDYIMKLENERRLRLNNLNKIYI
In the case of B1, in assay [2], the binding entry is given as “binds”.

B2: PfCullin2 (protein, UniProt C6KTD3 1-1129)
chain: MDPTAVNNYPVFYVKNKDFLNVDNEHIRCSLKRFEEYIHECFSILPYNKIKIQNEEKISVQHFCDVLVFNQCEQIICAIIEKECNEKTKQFFEEVEIRIKNEEFKNGEEEFLKLFVSIWNNFSLVLIHISDILQSFIAYTKNMCCNFFDPTQIFNYLWKKYINQYVIIKNMFISSICNYLTYDKIYCETYFYEYVCVNICNKYATKRYNLKKNQINYIERLQNIQKNYQVNNEATNKQTNKINKKDCINKKEIPTENITYKTKEEEHIQRGDHNNNNNYNNSYDNNNYSDDIYNSNPYLDDTNHEYKNTQKKKKINDKVLSLSIKISDILNLYDDFERIYKNETYTFYKEKIEKYKKDMETLGYEECNFDFPIIVENYLCHEQIRSRKFLKEHTEITILNMLKDLLLVKNRDVLFKDSYIKYCIIKEKYDPLRSVYLYSLNLDDLENFSNIFFNVVDNIGTELVNDVINKRNNSSLLNNAIIKLINFKLNVDRIIIMSFRYSSYFMKKWREVFEHFINKGIQAETYMPIILSMYLNNLLTMYNACLRKLKKYYILNKKIKNNRSLFNNLLFEVDWNNYCTQPISETIDFYDISTDSDNMLGIKKYLRKKRKNTKKDLINFEHEEEYVKRKHMDNNIHNNDHNDNIYFNNNLYFNNDYHNNLYYDSLNINKRSDEKIFFHLLKIDKLFKKYHIIGKYIMNMITVILSLFRYVSDKEKFEKYYRTYMCKRLINDSSFNIILDVKVFKTLKKECGAQFTKKIEIILKDMKFTSKTLMKFYKELPNNVNHFLKRKKYAVNIIFNESWEYVNTENNVIYPPMIKMCNEAFFLFYQKYNKSKNIKFLPLLGLCTLRVHFKNFKEEGSFDLGKRDDNNDEKRDDNNDEKRDHNNIEKRDDNNIEKRDDNNIEKRDDNNIEKRDDNNDEKRDENNDKKRDENNNYSDDNDDDLNNEDSSSTYNKKGKKKIYITVTILQALVLLLFNKKNEYHINEIKELTGISTENIIRYLKTIYTIGETHILIYDKANEILKLNFSFRSKKKFLIVNYNDVLYKDDMGPTTSLLNEDNEIEDKTLHIDAAIVKFLKTNGKSSERKICSFIKDKMDISSNEQIKNRISSLLSREFIFFKNNNYHYEL
Regarding B2, the binding entry in assay [3] and in assay [2] was “binds” in each case.

B3: PfMCM6 (protein, UniProt Q8IDF0 1-929)
chain: MSAIFNESELSGLDAHSAFGNNETSSFQKKKRRIDENSQMSVNDLVDDGEEEEDDDDDEEEPSYVQDQNMAKVFEKFLKTFSEKKSEEDDDDGDSIWKDSLNFDFPSNLEIAKDSHYVLLLFSILQNSYSRNKVLIVDMKHVLMWEPTDKNRFDIGSQLYMYIKRHFLRILDIFEKKVQLLAESINPIKTKEVGKICLRFYNKKNPIHSLRSLRCEMLGEMISVRGQVTRTSDVRPELTLAAFKCNECGNIINGVKQQFRYTQPSKCPSASCSNMSDWSLVLEQSYFVDWQKIRLQEIAQESPPGSMPRNMDVILRNDIVDSVHAGDRIIVTGCLIVVPDIPTLMKPGDVPRSVARQLLKKNENSLVSQGLTGIKGVGVQDLNHKLCIYACQIEKLNSSKKDNNFDEQTQVDINCEEILNCDDLKWLRDIAMHPNTIDILAECIAPKIWGNLEIKKGALLMMTGGVQKITSNCKLRGDINMCIVGDPGTAKSEILKYVESFAPRAIFTSGKGSTAAGLTAAVHRDPDQGDTVLEAGALMYADQGICCIDEFDKMDEKDRVAIHEAMEQQTISITKAGIQATLNARASVLAACNPKYGRYDTLKTFAQNVNIPAPLLSRFDLFYTMLDCIDIDKDTSIANHLVSMHCGEEAEKHLRANAGKLDSVKLEIYLELSKRVKPLLTDEAKYKLIQYYVSFRNIEYSPGAQRSMRMTVRQLESLIRLSEAVAKLKFSHFVDVKHVEIACSIFKASMKKISNEKEINLDEEFDKVNNSLMGNKVNKLDQETENTEQNKKITTIKASEYQYISAIIFEIIKEYEFNNNNESITQDQLIETYLQVYAKAESSEQVDEWIYKLKKIINRLINQDIKLLSETNEDDPEKVIIRIHPNYAGPIVEGVSNKNTYGYNTFKNYQTQEKAPEDDVDFQEEIDNF
For the molecule B3, the binding entry in assay [2] is listed as “binds”.

B4: PfMCM7 (protein, UniProt Q8IC16 1-821)
chain: MGERRRDIRSYLDDSHTKYLEAVKNYNAHIDELVRFLDTFEDPAVNHTNWGKLKYKGYLQKIYNHDTEVLPIYLGDLREYFSKENDDVDYSVYNGIMTNTHRYMELLYSAADKCLSDECYKRFMRGYGEEDESEKIKKRNLRRINNEDNSGYSTDESEKEAFNNLFRDMIKPIEEIRQERMKEYKLPAYLRVNFEIILIPSSRDLVRKMRIVNADCIGSLSTFECEVIRATQLKPRIQVATYECDRCHVFAYKAVDGPFFMPLFDCPGCTNVHGVRGSLKFQSKLSKFVKYQEIKVQELSSQLPEGDIPRSMNCIIHGESTTSIQPGMSVTLTGVLMPVTKSGYQALKGGLIAEKVFHIYYVQNNKENFNEHIDNYDKIMEQVQELKNSPNLYEKLAYNIGPEIYGHDDVKKALLLQLIGGCTKKKKDGGLIRGDIHILLMGDPGVAKSQLMKKVCLIASRSIYTTGKGSSSVGLTAAVLKDPNTGETTLEGGALVLADKGICCIDEFDKMDEYDRSAIYEVMEQQTVSIAKAGHCSNMPARSSVLAAANPVNGKYDCKKSVMLNMNLPAALLTRFDLQFLLLDVSDREKDKKLAEHVLNILKCIDSSDEKKKKSELNDDGYEEIDKTVLRAFIQLAKKKQPTISPELIPKITQWYVSTRQLESQQERYSDTRINYTTPRALLAILRISQALARLRDSDVIETADFEEAIRLTEQSKASVSLQTEKRRRKDVSNEIMNIIKNIKDKIMEKKKRWNGWIPIEEIERQSVTKGFTRAHVMNTIDKYVELTVFTINENNTAIAFPNDVYNEDDEYDEMEQEDYE
On to B4, for which the binding entry in assay [2] is recorded as “binds”.
